# Data taken from US11116710B2, “Antimicrobial compositions” (SYMRISE AG, priority 2016, dated 2021).
# At least one structure is not confirmed: it was looked up by name or label, or the drawing left a doubt.
# Tests used:
# Assay in all cases: Preservative challenge test (European Pharmacopoeia 7.0, 5.1.3) in anionic emulsion with Dracorin CE
# E. coli = assay type: cell-based, Escherichia coli; settings: day 0, 1.0% in anionic emulsion, pH 5.5
# Method: (§1) The invention will be further described in the following on the basis of examples. The examples serve to illustrate the invention, without thereby restricting the scope of protection of the claims. For examples, 1 to 11 preservative challenge tests according to European Pharmacopoeia 7.0 (5.1.3. Efficacy of antimicrobial preservation) were used. For example 12, activities were determined by measuring minimum inhibitory concentrations (MIC values) according to DIN 58940. All numerical information relates to weight, unless stated otherwise.
# (§2) Activity of Benzoic acid-3-hydroxypropylester (BAHP) against the microorganisms E. coli, P. aeruginosa, S. aureus, C. albicans and spores of A. brasiliensis was evaluated in an anionic emulsion with Dracorin CE as emulsifier. The pH value of the emulsion was 5.5.
# (§3) Activity of Furoic acid-3-hydroxypropylester (FAHP) against the microorganisms E. coli, P. aeruginosa, S. aureus, C. albicans and spores of A. brasiliensis was evaluated in an anionic emulsion with Dracorin CE as emulsifier. The pH value of the emulsion was 5.5.
# (§4) Activity of Anisic acid-3-hydroxypropylester (AAHP) against the microorganisms E. coli, P. aeruginosa, S. aureus, C. albicans and spores of A. brasiliensis was evaluated in an anionic emulsion with Dracorin CE as emulsifier. […]
# (§5) Synergistic effects between Benzoic acid-3-hydroxypropylester (BAHP) and 1,2-Octanediol were determined. […]
# P. aeruginosa = assay type: cell-based, Pseudomonas aeruginosa; settings: day 0, 1.0% in anionic emulsion, pH 5.5
# Method: as §1, §2, §3, §4, §5
# S. aureus = assay type: cell-based, Staphylococcus aureus; settings: day 0, 1.0% in anionic emulsion, pH 5.5
# Method: as §1, §2, §3, §4, §5
# C. albicans = assay type: cell-based, Candida albicans; settings: day 0, 1.0% in anionic emulsion, pH 5.5
# Method: as §1, §2, §3, §4, §5
# [1] = system: spores of A. brasiliensis; assay type: cell-based, Aspergillus brasiliensis
# Method: as §1, §2, §3
# Activity of Anisic acid-3-hydroxypropylester (AAHP) against the microorganisms E. coli, P. aeruginosa, S. aureus, C. albicans and spores of A. brasiliensis was evaluated in an anionic emulsion with Dracorin CE as emulsifier. The pH value of the emulsion was 5.5.
# Activity of N-Methylsalicylamid (MSA) against the microorganism A. brasiliensis was evaluated in an anionic emulsion with Dracorin CE as emulsifier. The pH value of the emulsion was 5.5.
# Activity of Furoic acid methylester (FAME) against the microorganism A. brasiliensis was evaluated in an anionic emulsion with Dracorin CE as emulsifier. The pH value of the emulsion was 5.5.
# Activity of Salicylamide (SA) against the microorganism A. brasiliensis was evaluated in an anionic emulsion with Dracorin CE as emulsifier. The pH value of the emulsion was 5.5.
# Activity of Salicylic acid hydroxyethyl ester (SAHE) against the microorganism A. brasiliensis was evaluated in an anionic emulsion with Dracorin CE as emulsifier. The pH value of the emulsion was 5.5.
# Activity of Salicylic acid hydroxypropyl ester (SAHP) against the microorganism A. brasiliensis was evaluated in an anionic emulsion with Dracorin CE as emulsifier. The pH value of the emulsion was 5.5.
# Activity of Benzoic acid-3-hydroxypropylester (BAHP) against spores of A. brasiliensis was evaluated in an anionic emulsion with Dracorin CE as emulsifier. The pH value of the emulsion was 7.
# Activity of Anisic acid-3-hydroxypropylester (AAHP) against spores of A. brasiliensis was evaluated in an anionic emulsion with Dracorin CE as emulsifier. The pH value of the emulsion was 7. […]
smiles,measurement,setting,value
"COc1ccc(C(=O)OCCCO)cc1 [AAHP, Anisic acid-3-hydroxypropylester]",Colony counts (cfu/g formulation),E. coli,4.6 × E6 cfu/g formulation
same,Colony counts (cfu/g formulation),P. aeruginosa,4.2 × E6 cfu/g formulation
same,Colony counts (cfu/g formulation),S. aureus,3.3 × E6 cfu/g formulation
same,Colony counts (cfu/g formulation),C. albicans,4.2 × E6 cfu/g formulation
same,Colony counts (cfu/g formulation),"[1]; day 0, 1.0% in anionic emulsion, pH 5.5",3.8 × E6 cfu/g formulation
same,Colony counts (cfu/g formulation),"[1]; day 0, 1.0% in anionic emulsion, pH 7",4.3 × E6 cfu/g formulation
same,Colony counts (cfu/g formulation),"[1]; day 2, 1.0% in anionic emulsion, pH 5.5",6.5 × E3 cfu/g formulation
same,Colony counts (cfu/g formulation),"[1]; day 2, 1.0% in anionic emulsion, pH 7",6.5 × E3 cfu/g formulation
